# Measured values from paper PMC11760092, “Pretreatment with serine protease inhibitors impairs Leishmania amazonensis survival on macrophages” (Parasites & Vectors, 2025).
# Assays:
# [1] = test system: Leishmania amazonensis-WT promastigotes; test: Antipromastigote assay (MTT); assay type: cell-based; conditions: CC50 in macrophages/IC50 in parasite
# Procedure: Leishmania amazonensis–WT promastigotes, in the logarithmic phase of growth, were transferred to 96-well culture plates (final concentration 2 × 10^6 cells/mL) and exposed to different concentrations of inhbitors during 72 h at 25 °C. The cell viability was evaluated by the 3-(4,5-dimethylthiazol-2-yl)-2,5 diphenyltetrazolium bromide (MTT) method (obtained from Sigma-Aldrich). The inhibitory concentration of 50% of parasite growth (IC50) values were calculated using GraphPad Prism 8 software […]. Three independent experiments in triplicate were performed. Amphotericin B (Cristália, São Paulo, SP, Brazil) was used as a reference drug.
# [2] = test system: L. amazonensis (RFP) amastigotes; test: Antiamastigote assay (RFP fluorescence, infected peritoneal macrophages); assay type: cell-based, Leishmania amazonensis; conditions: CC50 in macrophages/IC50 in parasite
# Procedure: Peritoneal macrophages from BALB/c mice were obtained by peritoneal lavage and distributed in 24-well plates at 2 × 10^6 cells/mL in RPMI medium (Cultilab) containing 10% FBS and a 0.5% penicillin and streptomycin solution (complete RPMI). The plates were incubated for 1 h at 37 °C and 5% CO2, washed with phosphate-buffered saline (PBS), and then reincubated in complete RPMI medium overnight. The cells were washed again with PBS and infected with stationary growth phase L. amazonensis (RFP) promastigotes at a 10:1 ratio for 4 h at 33 °C. The plates were washed with PBS and the inhibitors were added at different concentrations and incubated for 72 h. After this time, each well was scraped to remove attached cells and the reading was taken with a spectrofluorimeter (FLx800, BioTek Instruments, Winooski, VT, USA) at 530 nm and 590 nm of excitation and emission, respectively. […] All assays were performed in triplicate and repeated three times. Results were calculated as the percentage of amastigote survival compared with the nontreated control group, and IC50 values were determined using GraphPad Prism 8 software.
structure (smiles),measurement,setting,value
"Cc1ccc(S(=O)(=O)N[C@@H](Cc2ccccc2)C(=O)CCl)cc1 [TPCK, N-p-tosyl-L-phenylalanine chloromethyl ketone]",Selectivity index (SI) Promastigote,[1],9.5
same,Selectivity index (SI) Amastigote,[2],9.8
